The values that follow come from patent US20150191735.

Numbering of substitutions follows the chain as printed. Protein sequences can lack the tags named with them.

Assay in all cases: activity in cells
Data set [1] addresses T1, R6K Rep protein pi P42L-P113S (Plasmid R6K (E. coli)) (UniProt P03067).
T1 sequence: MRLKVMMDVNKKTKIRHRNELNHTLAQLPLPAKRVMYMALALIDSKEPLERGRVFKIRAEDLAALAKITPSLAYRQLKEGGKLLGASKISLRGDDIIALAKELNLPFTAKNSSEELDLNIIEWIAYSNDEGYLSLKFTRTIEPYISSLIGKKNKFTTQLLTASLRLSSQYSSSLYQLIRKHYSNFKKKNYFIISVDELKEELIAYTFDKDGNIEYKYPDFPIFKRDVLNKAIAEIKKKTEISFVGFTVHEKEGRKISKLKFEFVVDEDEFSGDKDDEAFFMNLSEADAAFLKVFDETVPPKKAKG
Particulars: NTC9685R-EGFP, NTC640722, RF305, 37 C.

Data set [2] addresses T2, R6K Rep protein pi P42L-P106L-F107S (Plasmid R6K (E. coli)) (UniProt P03067).
T2 sequence: T1 sequence with P106L, F107S, S113P
Particulars: NTC9685R-EGFP, NTC711231, RF359, 42 C induction.

The subject of data set [3] is T3, ColE2-P9 Rep protein wild type (Plasmid ColE2-P9 (E. coli)).
T3 sequence: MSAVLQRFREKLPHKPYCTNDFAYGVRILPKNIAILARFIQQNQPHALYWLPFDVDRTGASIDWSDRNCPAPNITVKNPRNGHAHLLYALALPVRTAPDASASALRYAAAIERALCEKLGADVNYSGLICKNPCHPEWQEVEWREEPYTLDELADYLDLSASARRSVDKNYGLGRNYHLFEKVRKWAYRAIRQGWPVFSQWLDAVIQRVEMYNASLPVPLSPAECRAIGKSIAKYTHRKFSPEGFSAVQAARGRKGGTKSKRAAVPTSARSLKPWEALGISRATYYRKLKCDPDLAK
Particulars: NTC9385C-Luc, NTC641711, LB 37 C, G194D mutant gives 0.9, only the site is given.

For “GGCTTGTTGTCCACAACCGTTAAACCTTAAAAGCTTTAAAAGCCTTATATATTCTTTTTTTTCTTATAAAACTTAAAACCTTAGAGGCTATTTAAGTTGCTGATTTATATTAATTTTATTGTTCAAACATGAGAGCTTAGTACGTGAAACATGAGAGCTTAGTACGTTAGCCATGAGAGCTTAGTACGTTAGCCATGAGGGTTTAGTTCGTTAAACATGAGAGCTTAGTACGTTAAACATGAGAGCTTAGTACGTACTATCAACAGGTTGAACTGCTGATC (double strand) [R6K gamma origin (minimal)]”, the activity on this sequence (mg plasmid/L/OD600) in data set [1] is 3.6; in data set [2] it was 8.5.

Consider “CAAAAGGGCGCTGTTATCTGATAAGGCTTATCTGGTCTCATTTTG (double strand) [ColE2 origin (+7)]”, for which the activity on this sequence (mg plasmid/L/OD600) in data set [3] stood at 0.4.
